According to the supplement of paper PMC12819154, “High-throughput peptide-centric local stability assay extends protein–ligand identification to membrane proteins, tissues and bacteria” (Nature Structural & Molecular Biology, 2025):
This is one part of the list. Most values lie at the level of the controls, where differences are scatter.

Protein sequences, listed by entry. Tags and fused reporters are not part of them. Lines headed by an entry give the natural chain unless they say otherwise; changes in a name come on top.
UniProt Q9DCT2, whole entry: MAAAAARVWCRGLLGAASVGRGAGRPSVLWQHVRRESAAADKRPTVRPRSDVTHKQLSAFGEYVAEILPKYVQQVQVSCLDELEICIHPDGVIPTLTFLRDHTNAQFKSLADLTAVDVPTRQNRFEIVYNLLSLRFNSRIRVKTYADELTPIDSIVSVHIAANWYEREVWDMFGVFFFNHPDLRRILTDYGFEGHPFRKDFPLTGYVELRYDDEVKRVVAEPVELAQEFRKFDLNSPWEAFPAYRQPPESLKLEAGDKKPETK
UniProt Q9JJ06: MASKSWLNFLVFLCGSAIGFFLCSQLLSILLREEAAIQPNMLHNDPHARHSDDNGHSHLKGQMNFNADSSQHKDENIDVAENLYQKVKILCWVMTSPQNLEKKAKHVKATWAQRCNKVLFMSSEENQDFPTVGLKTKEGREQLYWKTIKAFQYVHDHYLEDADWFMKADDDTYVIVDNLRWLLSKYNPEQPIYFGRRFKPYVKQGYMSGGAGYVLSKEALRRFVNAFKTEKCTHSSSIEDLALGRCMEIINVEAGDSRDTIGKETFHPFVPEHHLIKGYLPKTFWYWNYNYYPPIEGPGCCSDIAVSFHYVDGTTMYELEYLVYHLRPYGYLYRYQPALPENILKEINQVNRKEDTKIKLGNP
UniProt Q9DC51, whole entry: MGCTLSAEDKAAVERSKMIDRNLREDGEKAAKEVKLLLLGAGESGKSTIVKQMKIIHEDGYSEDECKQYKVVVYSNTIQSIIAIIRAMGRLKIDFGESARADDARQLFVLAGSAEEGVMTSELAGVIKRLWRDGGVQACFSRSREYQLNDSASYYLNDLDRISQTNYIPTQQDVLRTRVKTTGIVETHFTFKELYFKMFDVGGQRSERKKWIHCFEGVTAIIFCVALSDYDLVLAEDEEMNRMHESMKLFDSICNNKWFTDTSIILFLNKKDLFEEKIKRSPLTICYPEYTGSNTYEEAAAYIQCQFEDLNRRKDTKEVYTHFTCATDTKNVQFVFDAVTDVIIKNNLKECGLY
UniProt Q9EQF5: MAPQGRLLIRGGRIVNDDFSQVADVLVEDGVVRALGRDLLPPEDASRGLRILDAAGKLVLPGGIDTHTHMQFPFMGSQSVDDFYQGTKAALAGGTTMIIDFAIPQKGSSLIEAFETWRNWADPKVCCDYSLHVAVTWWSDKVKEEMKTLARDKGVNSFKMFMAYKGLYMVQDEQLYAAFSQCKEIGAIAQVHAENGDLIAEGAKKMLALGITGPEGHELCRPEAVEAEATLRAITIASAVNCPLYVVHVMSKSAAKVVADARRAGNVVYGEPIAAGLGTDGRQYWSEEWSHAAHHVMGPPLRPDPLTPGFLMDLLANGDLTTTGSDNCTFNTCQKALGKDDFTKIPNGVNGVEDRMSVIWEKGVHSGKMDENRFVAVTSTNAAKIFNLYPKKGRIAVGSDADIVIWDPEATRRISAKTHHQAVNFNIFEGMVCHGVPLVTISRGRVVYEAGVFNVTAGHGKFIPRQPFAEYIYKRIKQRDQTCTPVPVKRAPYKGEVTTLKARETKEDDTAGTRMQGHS
UniProt Q9JLQ0, whole entry: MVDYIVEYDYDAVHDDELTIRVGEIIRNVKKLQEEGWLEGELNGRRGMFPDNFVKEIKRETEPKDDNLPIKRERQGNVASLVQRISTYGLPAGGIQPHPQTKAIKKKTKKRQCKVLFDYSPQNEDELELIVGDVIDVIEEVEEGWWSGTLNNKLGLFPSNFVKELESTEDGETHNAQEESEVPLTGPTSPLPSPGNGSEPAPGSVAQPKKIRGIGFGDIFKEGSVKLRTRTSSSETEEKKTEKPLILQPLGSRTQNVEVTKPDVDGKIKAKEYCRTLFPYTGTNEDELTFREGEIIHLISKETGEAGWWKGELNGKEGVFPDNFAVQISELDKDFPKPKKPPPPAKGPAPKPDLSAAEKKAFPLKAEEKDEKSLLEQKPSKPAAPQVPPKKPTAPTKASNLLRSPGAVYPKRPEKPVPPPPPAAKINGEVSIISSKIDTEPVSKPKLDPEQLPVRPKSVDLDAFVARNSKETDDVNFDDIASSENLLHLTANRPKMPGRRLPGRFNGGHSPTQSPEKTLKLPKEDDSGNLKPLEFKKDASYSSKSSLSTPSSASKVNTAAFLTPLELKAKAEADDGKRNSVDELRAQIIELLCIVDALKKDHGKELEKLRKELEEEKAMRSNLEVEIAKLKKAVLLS
UniProt Q9JIS5, whole entry: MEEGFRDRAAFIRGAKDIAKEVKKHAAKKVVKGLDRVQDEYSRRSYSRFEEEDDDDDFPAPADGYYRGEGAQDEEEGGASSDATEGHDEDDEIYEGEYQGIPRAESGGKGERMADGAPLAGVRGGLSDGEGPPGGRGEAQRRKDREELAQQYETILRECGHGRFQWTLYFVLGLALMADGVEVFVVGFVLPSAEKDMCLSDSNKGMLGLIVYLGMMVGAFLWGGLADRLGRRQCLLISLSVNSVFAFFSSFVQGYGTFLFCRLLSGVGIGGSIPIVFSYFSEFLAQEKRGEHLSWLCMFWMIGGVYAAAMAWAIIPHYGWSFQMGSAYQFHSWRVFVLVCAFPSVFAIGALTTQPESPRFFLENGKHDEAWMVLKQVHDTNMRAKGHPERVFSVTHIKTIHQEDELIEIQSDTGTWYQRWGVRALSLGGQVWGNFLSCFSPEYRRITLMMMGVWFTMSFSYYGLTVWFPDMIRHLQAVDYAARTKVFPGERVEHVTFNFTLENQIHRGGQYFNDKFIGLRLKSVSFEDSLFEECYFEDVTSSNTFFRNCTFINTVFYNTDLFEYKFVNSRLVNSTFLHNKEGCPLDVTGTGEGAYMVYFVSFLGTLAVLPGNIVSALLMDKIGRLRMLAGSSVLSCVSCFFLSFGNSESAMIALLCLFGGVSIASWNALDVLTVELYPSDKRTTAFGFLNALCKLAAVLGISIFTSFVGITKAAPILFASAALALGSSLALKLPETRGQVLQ
UniProt Q9JHC9: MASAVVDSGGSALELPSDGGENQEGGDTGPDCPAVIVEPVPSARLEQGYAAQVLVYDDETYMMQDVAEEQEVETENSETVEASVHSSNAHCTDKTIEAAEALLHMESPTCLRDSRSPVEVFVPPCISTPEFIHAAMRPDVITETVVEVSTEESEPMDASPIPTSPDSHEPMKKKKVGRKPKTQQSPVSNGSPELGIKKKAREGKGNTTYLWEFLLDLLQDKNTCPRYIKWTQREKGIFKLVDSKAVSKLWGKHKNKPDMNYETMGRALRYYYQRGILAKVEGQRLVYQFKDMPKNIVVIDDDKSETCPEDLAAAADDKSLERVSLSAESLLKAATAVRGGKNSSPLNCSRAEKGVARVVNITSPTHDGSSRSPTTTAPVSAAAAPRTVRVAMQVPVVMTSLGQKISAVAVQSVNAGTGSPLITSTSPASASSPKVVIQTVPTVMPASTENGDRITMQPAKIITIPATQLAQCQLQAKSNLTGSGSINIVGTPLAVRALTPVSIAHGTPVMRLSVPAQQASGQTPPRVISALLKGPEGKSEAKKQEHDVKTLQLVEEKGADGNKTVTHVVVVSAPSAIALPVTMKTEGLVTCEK
UniProt Q9DC50: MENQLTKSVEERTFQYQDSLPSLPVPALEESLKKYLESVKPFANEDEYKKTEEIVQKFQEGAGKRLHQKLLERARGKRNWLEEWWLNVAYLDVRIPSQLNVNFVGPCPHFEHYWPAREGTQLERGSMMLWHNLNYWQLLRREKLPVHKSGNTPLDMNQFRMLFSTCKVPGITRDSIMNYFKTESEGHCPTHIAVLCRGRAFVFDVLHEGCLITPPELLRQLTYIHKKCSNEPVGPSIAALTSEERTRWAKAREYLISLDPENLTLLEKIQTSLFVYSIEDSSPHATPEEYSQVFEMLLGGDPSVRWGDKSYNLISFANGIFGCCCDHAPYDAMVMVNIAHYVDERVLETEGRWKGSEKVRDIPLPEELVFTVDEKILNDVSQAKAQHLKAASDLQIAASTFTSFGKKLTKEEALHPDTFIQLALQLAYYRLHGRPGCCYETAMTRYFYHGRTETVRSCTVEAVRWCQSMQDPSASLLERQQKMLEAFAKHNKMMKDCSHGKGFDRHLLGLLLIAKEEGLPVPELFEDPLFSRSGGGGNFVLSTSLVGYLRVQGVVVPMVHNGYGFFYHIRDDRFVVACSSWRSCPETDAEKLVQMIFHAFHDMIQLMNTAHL
UniProt Q9EPK6: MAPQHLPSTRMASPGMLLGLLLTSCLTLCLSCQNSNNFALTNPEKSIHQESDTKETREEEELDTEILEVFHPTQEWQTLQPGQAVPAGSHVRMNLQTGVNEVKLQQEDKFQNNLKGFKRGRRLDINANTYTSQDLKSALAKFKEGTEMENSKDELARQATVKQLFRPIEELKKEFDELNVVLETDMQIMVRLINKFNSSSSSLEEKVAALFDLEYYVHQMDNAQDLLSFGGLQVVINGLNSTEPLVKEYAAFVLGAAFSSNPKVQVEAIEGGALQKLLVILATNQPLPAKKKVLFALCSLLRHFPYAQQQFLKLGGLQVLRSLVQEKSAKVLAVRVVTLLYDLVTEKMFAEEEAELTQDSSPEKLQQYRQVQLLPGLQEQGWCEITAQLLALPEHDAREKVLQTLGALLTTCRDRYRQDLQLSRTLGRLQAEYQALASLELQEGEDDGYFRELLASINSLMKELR
UniProt Q9EQI8: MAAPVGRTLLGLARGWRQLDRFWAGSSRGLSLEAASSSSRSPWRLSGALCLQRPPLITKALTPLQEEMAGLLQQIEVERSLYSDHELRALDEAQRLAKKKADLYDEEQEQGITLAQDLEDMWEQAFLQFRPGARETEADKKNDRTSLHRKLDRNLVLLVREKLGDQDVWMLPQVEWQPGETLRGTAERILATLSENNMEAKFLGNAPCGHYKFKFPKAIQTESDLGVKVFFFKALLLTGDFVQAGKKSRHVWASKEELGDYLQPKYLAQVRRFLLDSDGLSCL
UniProt Q9QXK7: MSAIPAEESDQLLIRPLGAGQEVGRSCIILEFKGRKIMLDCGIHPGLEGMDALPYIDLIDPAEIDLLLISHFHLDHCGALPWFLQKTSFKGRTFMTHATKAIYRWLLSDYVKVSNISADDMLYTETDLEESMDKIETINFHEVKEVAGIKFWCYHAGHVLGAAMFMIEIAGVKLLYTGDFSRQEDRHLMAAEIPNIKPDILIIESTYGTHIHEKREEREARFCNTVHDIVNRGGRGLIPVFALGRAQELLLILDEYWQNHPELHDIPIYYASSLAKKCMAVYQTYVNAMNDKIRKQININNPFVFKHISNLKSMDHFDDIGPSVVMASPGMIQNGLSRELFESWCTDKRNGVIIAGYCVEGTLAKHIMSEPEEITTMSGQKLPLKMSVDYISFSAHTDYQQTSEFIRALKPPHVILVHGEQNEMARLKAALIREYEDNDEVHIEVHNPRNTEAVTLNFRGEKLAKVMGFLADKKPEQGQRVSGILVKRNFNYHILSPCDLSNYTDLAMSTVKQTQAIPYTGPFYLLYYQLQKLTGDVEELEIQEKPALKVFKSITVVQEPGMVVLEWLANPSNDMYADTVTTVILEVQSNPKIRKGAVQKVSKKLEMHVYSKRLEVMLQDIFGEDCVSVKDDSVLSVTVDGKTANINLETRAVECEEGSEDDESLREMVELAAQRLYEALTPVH
UniProt Q9JHZ2: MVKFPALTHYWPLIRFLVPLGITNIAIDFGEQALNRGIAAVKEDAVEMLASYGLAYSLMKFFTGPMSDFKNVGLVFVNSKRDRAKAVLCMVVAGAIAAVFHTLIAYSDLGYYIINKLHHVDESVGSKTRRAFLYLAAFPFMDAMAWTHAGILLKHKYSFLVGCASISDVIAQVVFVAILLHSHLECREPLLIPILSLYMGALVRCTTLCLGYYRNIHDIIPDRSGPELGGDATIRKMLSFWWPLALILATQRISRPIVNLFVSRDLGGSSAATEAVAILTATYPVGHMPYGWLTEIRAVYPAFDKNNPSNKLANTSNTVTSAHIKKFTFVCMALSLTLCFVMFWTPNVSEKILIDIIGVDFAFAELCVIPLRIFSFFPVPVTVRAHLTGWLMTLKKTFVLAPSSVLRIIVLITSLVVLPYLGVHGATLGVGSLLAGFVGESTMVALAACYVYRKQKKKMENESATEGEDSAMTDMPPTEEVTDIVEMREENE
UniProt Q9JJL8: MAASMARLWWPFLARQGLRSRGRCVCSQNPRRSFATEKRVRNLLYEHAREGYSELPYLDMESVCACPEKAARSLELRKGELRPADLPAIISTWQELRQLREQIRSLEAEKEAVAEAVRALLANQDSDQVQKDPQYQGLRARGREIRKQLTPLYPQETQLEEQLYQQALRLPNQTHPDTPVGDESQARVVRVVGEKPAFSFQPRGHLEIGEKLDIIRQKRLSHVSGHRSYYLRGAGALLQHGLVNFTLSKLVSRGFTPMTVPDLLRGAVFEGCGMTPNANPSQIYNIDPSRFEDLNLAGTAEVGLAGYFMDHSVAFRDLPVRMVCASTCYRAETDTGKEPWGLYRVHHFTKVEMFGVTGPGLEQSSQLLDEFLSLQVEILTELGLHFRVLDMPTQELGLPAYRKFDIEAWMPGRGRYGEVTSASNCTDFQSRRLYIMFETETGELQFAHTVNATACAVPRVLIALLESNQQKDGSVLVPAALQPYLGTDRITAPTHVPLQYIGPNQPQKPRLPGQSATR

Compound: CN[C@@H]1C[C@H]2O[C@@](C)([C@@H]1OC)n1c3ccccc3c3c4c(c5c6ccccc6n2c5c31)C(=O)NC4 [staurosporine]
Test: log2 fold change of pooled soluble protein (PISA), ligand vs vehicle (log2 ratio); higher = more thermally stabilized
Conditions: ligand concentration: 20 uM; assay format: PISA pool 52.9/55.5/58.6 C

Target | log2 fold change of pooled soluble protein
UniProt Q9JHJ3 | 0.18
UniProt Q9JI99 | -0.152
UniProt Q9JIY5 | -0.199
UniProt Q9JJU8 | 0.251
UniProt Q9JIH2 | 0.149
UniProt Q9JLV5 | 0.0794
UniProt Q9JI46 | -0.0484
UniProt Q9QXG4 | -0.011
UniProt Q9DCT2 | -0.185
UniProt Q9JJ06 | -0.225
UniProt Q9JMA7 | 0.343
UniProt Q9QXY6 | 0.062
UniProt Q9JLM9 | -0.165
UniProt Q9DC51 | -0.00751
UniProt Q9EQK5 | -0.0321
UniProt Q9EQF5 | -0.0764
UniProt Q9JLQ0 | 0.0107
UniProt Q9DCH6 | -0.105
UniProt Q9JIS5 | 0.0247

Target | log2 fold change of pooled soluble protein
UniProt Q9JHU2 | 0.00806
UniProt Q9EQS9 | 0.109
UniProt Q9JKJ9 | -0.0721
UniProt Q9EPU0 | -0.0242
UniProt Q9QYE6 | -0.0826
UniProt Q9JHC9 | -0.238
UniProt Q9DC50 | -0.0667
UniProt Q9JM76 | -0.0219
UniProt Q9QXE0 | -0.0538
UniProt Q9EPK6 | 0.15
UniProt Q9JJJ3 | -0.0949
UniProt Q9EQI8 | 0.136
UniProt Q9QXK7 | -0.931
UniProt Q9JLI6 | 0.105
UniProt Q9DCJ5 | -0.157
UniProt Q9JHZ2 | -0.195
UniProt Q9JKF6 | 0.296
UniProt Q9JJL8 | 0.322

Exported as a markdown table: part of the list above

| Target | log2 fold change of pooled soluble protein |
| --- | --- |
| UniProt Q9JIY5 | -0.199 |
| UniProt Q9JLV5 | 0.0794 |
| UniProt Q9JI46 | -0.0484 |
| UniProt Q9JJ06 | -0.225 |
| UniProt Q9EQK5 | -0.0321 |
| UniProt Q9EQF5 | -0.0764 |
| UniProt Q9JHC9 | -0.238 |
| UniProt Q9QXE0 | -0.0538 |
| UniProt Q9EQI8 | 0.136 |
| UniProt Q9JHZ2 | -0.195 |
